Results on 2 compounds are retold here after patent US20190358182A1, “NOVEL MECHANISM FOR DECREASING OPIOID REWARD” (THE TRUSTEES OF INDIANA UNIVERSITY, priority 2018, published 2019).

For one data set, the system named is rats. Particulars: rat, in vivo. The protocol:
Method: On CPP day 1 and 2, rats are allowed to habituate to the apparatus. On CPP day 3, rats are again allowed to explore the apparatus (30 min) to verify absence of chamber bias. Only rats that fail to show a chamber bias are used for CPP experiments. Rats used for CPP are injected (i.p.) with test drug (day 4, 6 and 8) prior to placement in the drug-paired chamber. On alternate days (day 5, 7 and 9), rats receive vehicle (i.p.) and are placed in the opposite chamber. Mechanical paw withdrawal thresholds to an electronic von Frey anesthesiometer are measured in duplicate through the grid floor of our custom apparatus before and after each drug pairings to assess possible changes in nociceptive thresholds. Motor behavior is tracked by photobeams. CPP is measured (day 10) in the drug-free state.
This study requires 19 groups of rats evaluated using a conditioned place preference approach. In the same animals we measure responsiveness to punctuate mechanical stimulation with an electrovonfrey anesthesiometer (Rahn et al. (2014) Molecular Pain 2014, 10:27 DOI: 10.1186/1744-8069-10-27) before and after all drug or vehicle pairings. […] Compounds are tested under blinded conditions. […] N=190: This number reflects testing of 19 cohorts of 10 rats.

The subject of the next data set is DA efflux in NAc shell. Description: Fast-scan cyclic voltammetry of electrically evoked DA in NAc shell. It is filed as in vivo, rat. Particulars: medial forebrain bundle stimulation; morphine 6 mg/kg i.p.; ZL006 10 mg/kg i.p.; FIG. 7A, 7B. An excerpt: Design and Rationale: Although FSCV can record spontaneously occurring DA transients in behaving animals, the anesthetized preparation is preferred because it provides reliable and reproducible DA signals independent of behavioral activity. In fact, the fluctuating and intermittent nature of behavior-related DA signals (e.g.,) could confound efforts to establish a first-ever characterization of PSD95-nNOS disrupters on DA dynamics. […] Rats are fixed in a stereotaxic frame, and a carbon-fiber working electrode (6 μm diameter) is lowered into NAc shell. A bipolar stimulating electrode is lowered over the ipsilateral MFB to evoke endogenous DA release. An Ag/AgCl reference is placed on the contralateral cortex. […] Voltammograms are obtained every 100 ms at a scan rate of 400 v/s.
The basic design is to collect baseline DA signals (30 min) evoked by MFB stimulation, administer (ip) test drug(s) or vehicle, and collect post-administration evoked DA signals. […] The effects of each compound (injected i.p.) will be monitored for at least 60 min and tested in separate groups of rats (n=10/group). […]
Stimulations at 60 Hz are applied every 2 min to ensure renewal of the readily releasable DA pool. […] [DA]p and Vmax are determined by the above equation in combination with curve-fitting software that incorporates a simplex minimization algorithm.

As to `O=C(O)c1ccc(NCc2cc(Cl)cc(Cl)c2O)cc1O` [ZL006], the “CPP or aversion in the absence of morphine” value in the data set with rats was “will not produce either CPP or aversion”.
Consider `CN1CC[C@]23c4c5ccc(O)c4O[C@H]2[C@@H](O)C=C[C@H]3[C@H]1C5` [morphine, reference compound], for which the “evoked dopamine (DA) efflux, drug alone” value in the data set on DA efflux in NAc shell is reported as “produces robust dopamine efflux”.
